Experimental data taken from publication PMC3445477.
No constants are given. Whether binding was seen depends on the method and setting. Some binding calls cover weakened binding; strength is not graded here.

How the values were obtained:
[1] = biological target: SrfH Gly103 (srfH allele of S. Typhimurium 14028s) (Salmonella enterica serovar Typhimurium 14028s) (UniProt Q8ZQ79); assay: two-hybrid; Hybrid Hunter yeast two-hybrid kit (Invitrogen); SrfH fused to LexA as bait, full-length TRIP6 as prey; beta-galactosidase activity as read-out, cultures grown at 30°C
[2] = biological target: T1, SrfH Asp103 (srfH allele of S. Typhimurium SL1344) (Salmonella enterica serovar Typhimurium SL1344) (UniProt Q8ZQ79); assay: as above
T1 sequence: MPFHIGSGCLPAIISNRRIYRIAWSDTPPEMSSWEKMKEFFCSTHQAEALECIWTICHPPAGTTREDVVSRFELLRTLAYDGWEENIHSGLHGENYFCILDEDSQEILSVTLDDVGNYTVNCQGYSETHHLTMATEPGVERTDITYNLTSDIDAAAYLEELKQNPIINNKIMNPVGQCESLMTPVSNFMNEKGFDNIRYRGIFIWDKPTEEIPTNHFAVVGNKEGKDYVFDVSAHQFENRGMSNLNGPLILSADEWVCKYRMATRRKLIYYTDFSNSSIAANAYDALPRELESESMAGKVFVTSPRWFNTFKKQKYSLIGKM

B1: TRIP6 (protein, UniProt Q15654 1-476)
chain: MSGPTWLPPKQPEPARAPQGRAIPRGTPGPPPAHGAALQPHPRVNFCPLPSEQCYQAPGGPEDRGPAWVGSHGVLQHTQGLPADRGGLRPGSLDAEIDLLSSTLAELNGGRGHASRRPDRQAYEPPPPPAYRTGSLKPNPASPLPASPYGGPTPASYTTASTPAGPAFPVQVKVAQPVRGCGPPRRGASQASGPLPGPHFPLPGRGEVWGPGYRSQREPGPGAKEEAAGVSGPAGRGRGGEHGPQVPLSQPPEDELDRLTKKLVHDMNHPPSGEYFGQCGGCGEDVVGDGAGVVALDRVFHVGCFVCSTCRAQLRGQHFYAVERRAYCEGCYVATLEKCATCSQPILDRILRAMGKAYHPGCFTCVVCHRGLDGIPFTVDATSQIHCIEDFHRKFAPRCSVCGGAIMPEPGQEETVRIVALDRSFHIGCYKCEECGLLLSSEGECQGCYPLDGHILCKACSAWRIQELSATVTTDC
Q: For B1, which binding [1] is on record?
A: binds

Q: And the binding [2]?
A: no binding
